According to PubChem BioAssay AID504834 (National Center for Advancing Translational Sciences (NCATS), 2011):
The campaign covered roughly 320,000 compounds. About 22,000 (6.9%) were called active. Inconclusive means that the source gave no clear call. Such entries were picked first, then a sample of the others. Calls come from the whole dose curve; as a rule, active = well fitted inhibition curve with a large enough effect; inconclusive = small, poorly fitted or top-dose-only effect, or another doubt; inactive = no such curve, though single readings can be large or run the other way. Potencies beside an inconclusive call are fits to weak or partial responses and may not hold up.

Test: Primary qHTS for delayed death inhibitors of the malarial parasite plastid, 96 hour incubation
Details: P. falciparum luciferase reporter growth; series mostly up to 28.7 µM; activity change, negative = inhibition: at the top concentration
Outline: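 Two-generation exposure (96 h) targets delayed-death phenotype. Reporter parasites carrying integrated firefly luciferase, in red cells at 2% hematocrit and 0.05% parasitemia final, kept at 37 C, 5% CO2; luminescence loss indicates inhibition.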
% is set by controls: 0 for no effect and ±100 for the full control effect; potency is the fitted concentration of half-maximal effect.

| Compound | Potency | activity change, negative = inhibition |
| --- | --- | --- |
| N#C/C(=C\c1cccnc1)c1ccccc1[N+](=O)[O-] | inconclusive: 11.7 µM [inhibitor, single point] |  |
| O=C(NCc1ccccc1)c1ccc(Oc2ccc(C(=O)NCc3ccccc3)cc2)cc1 | inconclusive: 5.22 µM [inhibitor, partial curve, poor fit] |  |
| Cc1[nH]c2ccccc2c1/C=N/NC(=O)c1cc(C(C)(C)C)[nH]n1 |  | inactive: 0% |
| COc1cccc2cccc(/C=N/n3cnnc3)c12 | inconclusive: 0.928 µM [inhibitor, partial curve, poor fit] |  |
| COc1ccc(NS(=O)(=O)c2coc(C(N)=O)c2)cc1Cl | inconclusive: 14.7 µM [inhibitor, partial curve, poor fit] |  |
| CCCOc1ccc(/C=N/NC(=O)C2CC2)c(OCCC)c1 | inconclusive: 5.22 µM [inhibitor, partial curve] |  |
| Cc1cccc(N2CCN(C(=O)c3ccnn3C)CC2)c1C | inconclusive: 11.7 µM [inhibitor, single point] |  |
| COc1cc(/C=C2\N=C(c3ccccc3)OC2=O)ccc1OC(C)=O | inconclusive: 5.22 µM [inhibitor, partial curve] |  |
| CCOc1cc(/C=C2/COc3ccccc3C2=O)ccc1OCC(=O)N(C)C | inconclusive: 13.1 µM [inhibitor, single point] |  |
| CSc1ccc(CCNC(=O)c2nn(C)c3c2CS(=O)(=O)c2ccccc2-3)cc1 | inconclusive: 3.29 µM [inhibitor, partial curve] |  |
| CC(/C=N/NC(=O)c1cc(-c2cccs2)[nH]n1)=C\c1ccccc1 | inconclusive: 18.5 µM [inhibitor, single point] |  |
| CCCc1nnc(NC(=O)CN2CCOCC2)s1 | inconclusive: 0.185 µM [inhibitor, full curve, poor fit] |  |
| NC(=O)C1(NC(=O)[C@@H]2CC3(CC(c4cccc(NC(=O)[C@@H]5CCC(=O)N5)c4)=NO3)CN2C(=O)Cc2ccc(Cl)cc2)CC1 (some centres not stated) | inconclusive: 0.0066 µM [inhibitor, full curve, poor fit] |  |
| OC[C@@H](O)[C@@H](O)CO |  | inactive: 13.9% |
| Cc1ccc(-c2nc(N3CCOCC3)sc2C(=O)N2CCOCC2)cc1 |  | inactive: 14.3% |
| CCCC12CN3CCN(CC(C3)/C1=N\NC(=O)c1ccccc1Cl)C2 |  | inactive: 0% |
| CCN(CC(=O)Nc1c(F)cccc1F)C(=O)c1ccc(-c2ccc(C(C)=O)cc2)o1 | inconclusive: 18.5 µM [inhibitor, single point] |  |
| CCC(=O)OCC(=O)Nc1cc([N+](=O)[O-])ccc1Cl | inconclusive: 1.85 µM [inhibitor, single point] |  |
| COc1ccc(N2CCN(C(=O)c3cc(-c4ccc(F)cc4)[nH]c3C)CC2)cc1 | inconclusive: 14.7 µM [inhibitor, partial curve] |  |
| Cc1cc(C)n2nc(SCC(=O)Nc3ccc(F)c(F)c3F)nc2n1 | inconclusive: 18.5 µM [inhibitor, single point] |  |
| CC1CCCCN1C(=O)CSc1nc2cc3c(cc2c(=O)n1Cc1ccc2c(c1)OCO2)OCO3 (configuration not stated) | active: 4.15 µM |  |

3 records picked at random from those above:

| Compound | Potency | activity change, negative = inhibition |
| --- | --- | --- |
| NC(=O)C1(NC(=O)[C@@H]2CC3(CC(c4cccc(NC(=O)[C@@H]5CCC(=O)N5)c4)=NO3)CN2C(=O)Cc2ccc(Cl)cc2)CC1 (some centres not stated) | inconclusive: 0.0066 µM [inhibitor, full curve, poor fit] |  |
| O=C(NCc1ccccc1)c1ccc(Oc2ccc(C(=O)NCc3ccccc3)cc2)cc1 | inconclusive: 5.22 µM [inhibitor, partial curve, poor fit] |  |
| N#C/C(=C\c1cccnc1)c1ccccc1[N+](=O)[O-] | inconclusive: 11.7 µM [inhibitor, single point] |  |

(next part)

| Compound | Potency | activity change, negative = inhibition |
| --- | --- | --- |
| CN(C)c1ccc(-c2ccc([C@H]3[C@@H]4C=CCC[C@@]4(C)C(=O)N3Cc3ccccc3)c(F)c2)cc1 | inconclusive: 10.4 µM [inhibitor, partial curve, poor fit] |  |
| CCOC(=O)N1CCN(c2c(NCCCN(CC)CC)c(=O)c2=O)CC1 | inconclusive: 0.0074 µM [inhibitor, full curve, poor fit] |  |
| Nc1ncnc2c1ncn2C1OC(CO)C(O)C1O (configuration not stated) |  | inactive: 53.8% |
| CCOC(=O)c1c(S(=O)(=O)NCCc2ccccc2)c(C)n(C)c1C | inconclusive: 9.28 µM [inhibitor, single point] |  |
| O=C(Oc1ccc2c(c1)OCO2)c1cc2c(s1)CCC2 | inconclusive: 4.65 µM [inhibitor, partial curve, poor fit] |  |
| C=CCn1c(C)cc(C2=NNC(=Nc3ccc(C)cc3)SC2)c1C | inconclusive: 13.1 µM [inhibitor, single point] |  |
| CC(C)c1ccccc1NC(=O)COC(=O)c1c2c(nc3ccccc13)CCN(Cc1ccccc1)C2 | active: 13.1 µM |  |
| O=S(=O)(Nc1ccc(-c2cnco2)cc1)c1ccccc1 | inconclusive: 0.0208 µM [inhibitor, full curve, poor fit] |  |
| COc1cccc(-c2cc(C(=O)Nc3cnn(Cc4ccc(F)cc4)c3)no2)c1 | active: 2.08 µM |  |
| CC(=O)c1cccc(NS(=O)(=O)c2ccc(NC(=O)N3CCCCC3)cc2)c1 | active: 10.4 µM |  |
| CN(C)/C=N/c1ncc(C(=O)OC(C)(C)C)s1 |  | inactive: 132% |
| Cc1cc(C(=O)C[N+]2(C)CCOCC2)c(C)n1-c1ccc(Br)cc1 | inconclusive: 10.4 µM [inhibitor, single point] |  |
| Nc1ccccc1C(=O)NNc1c2ccccc2nc2ccccc12 | inconclusive: 18.5 µM [inhibitor, single point] |  |
| COc1ccccc1N(CC(=O)NCc1ccco1)S(C)(=O)=O |  | inactive: 24.5% |
| Cc1cccc(N2CCN(C(=O)C3CC(=O)N(C4CCCC4)C3)CC2)c1C (configuration not stated) | inconclusive: 0.0165 µM [inhibitor, full curve, poor fit] |  |
| CCN(CC)S(=O)(=O)c1ccc(C(=O)Oc2ccc3c(c2)OCO3)cc1 | active: 3.29 µM |  |
| CCN1CCN(C(c2ccccc2)c2nnnn2CCc2ccc(OC)c(OC)c2)CC1 (configuration not stated) | inconclusive: 4.65 µM [inhibitor, partial curve] |  |
| C=CCN(Cc1cc(OC)ccc1OC)C(=O)c1cc2ccc(OC)cc2[nH]1 | inconclusive: 9.28 µM [inhibitor, partial curve] |  |
| CC1CCN(CC(=O)N2c3ccccc3CCc3ccccc32)CC1 |  | inactive: 24.7% |
| CCC(=O)N1c2ccc(S(=O)(=O)N3CCN(c4ccccc4Cl)CC3)cc2CC1C (configuration not stated) | inconclusive: 10.4 µM [inhibitor, single point] |  |
| COc1ccc(NC(=O)N2CCN(c3ccc([N+](=O)[O-])cc3)CC2)cc1 | inconclusive: 18.5 µM [inhibitor, single point] |  |
